# From PubChem BioAssay AID504648 (National Center for Advancing Translational Sciences (NCATS), 2011)
# The whole screen tested about 390,000 compounds, of which about 610 (0.16%) were called active. Inconclusive means that the source gave no clear call. Such entries were picked first, then a sample of the others. The call rests on the fitted dose curve; in most records, active means well fitted inhibition curve with a large enough effect; inconclusive means small, poorly fitted or top-dose-only effect, or effect the other way, or another doubt; inactive means no such curve, though single readings can be large or run the other way. Potencies of inconclusive entries are doubtful fits and often do not repeat.
# Assay: Nrf2 qHTS screen for inhibitors: counterscreen for cytotoxicity
# Conditions: A549 ARE-Fluc cells, CellTiter-Fluor viability, 18-24 h; activity change, negative = cytotoxicity: at 46 µM (top of the series)
# Outline: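 Cytotoxicity counterscreen: CellTiter-Fluor fluorescence was measured in A549 ARE_Fluc cells after 18-24 h of compound exposure in a concentration series. The subsequent BugLite luminescent read reports ARE-luciferase activity.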
# On the % scale 0 is the no-effect control and ±100 the full control effect; potency means the concentration at half of the fitted maximal effect.
Compound,Potency,"activity change, negative = cytotoxicity"
CCN(CC)CCCN(C(=O)c1cccs1)c1nc(-c2ccc(OC)cc2)cs1,"inconclusive: 3.66 µM [falling, single point]",
Cc1ccc2[nH]c3c(N4CCN(Cc5ccccc5)CC4)ncnc3c2c1,"inconclusive: 20.6 µM [falling, partial curve]",
Cc1cc(C)nc(NS(=O)(=O)c2ccc(NC(=S)NC(=O)CC(C)C)cc2)n1,"inconclusive: 2.91 µM [falling, partial curve, poor fit]",
CC(C)C1Cc2c(C#N)c(N)sc(=S)c2CO1 (centres undefined),"inconclusive: 18.4 µM [falling, partial curve, poor fit]",
CCOC(=O)c1c(NC(=O)C2=C(C)NC(=S)NC2c2ccc(F)cc2)sc(C)c1C (centres undefined),"inconclusive: 2.06 µM [activator, partial curve, poor fit]",
Cc1cccc(OCC(=O)NNC(=O)c2cc3ccccc3oc2=O)c1,,inactive: -7.43%
Cc1ccc2nc(NC(=O)CN(C)S(=O)(=O)c3cccc4nsnc34)sc2c1,"inconclusive: 29.1 µM [falling, single point]",
CCOC(=O)C1=CCC2c3c(c4ccccc4n3C)C(=O)C1N2C(=O)OC(C)(C)C (centres undefined),"inconclusive: 18.4 µM [falling, single point]",
O=C(CCCN1C(=O)/C(=C/c2cccc(Br)c2)SC1=S)NCCCN1CCOCC1,"inconclusive: 20.6 µM [falling, partial curve]",
Cc1cc(Cl)ccc1NC(=S)NCCC(c1ccccc1)c1ccccc1,"inconclusive: 11.2 µM [falling, single point]",
CCOc1ccccc1NC(=O)Cc1noc2ccc(C)cc12,"inconclusive: 5.17 µM [falling, partial curve, poor fit]",
O=C1C=C(c2cccc(OCc3ccccc3)c2)C[C@@H](c2ccc3c(c2)OCO3)C1,"inconclusive: 5.8 µM [activator, partial curve, poor fit]",
O=C(Nc1ccc(F)c(Cl)c1)C1CCCN(C2=NS(=O)(=O)c3ccccc32)C1 (centres undefined),"inconclusive: 32.6 µM [falling, partial curve, poor fit]",
CN(C)CCNC(=O)Nc1ccc(Cl)c(Cl)c1,"inconclusive: 20.6 µM [activator, single point]",
CCCc1cc(C(=O)Nc2ccc(C(=O)c3ccccc3)cc2)n(C)n1,"inconclusive: 23.1 µM [falling, partial curve, poor fit]",
COc1cc(/C=C2\SC(=S)N(NC(=O)c3ccccc3O)C2=O)ccc1O,"inconclusive: 20.6 µM [falling, single point]",
Fc1ccc(-c2n[nH]c(=S)n2Cc2ccccc2)cc1,,inactive: 6.6%
CCN(CC(=O)Nc1c(F)cccc1F)C(=O)c1cccc(S(=O)(=O)N2CCCc3ccccc32)c1,"inconclusive: 16.4 µM [falling, partial curve, poor fit]",
COc1cc(-c2nc3ccc(C)cn3c2NCc2ccccc2)ccc1SC1CCCCC1,"inconclusive: 20.6 µM [falling, partial curve, poor fit]",
CN1CCN(c2nc3ccccc3nc2C(C#N)S(=O)(=O)c2ccccc2)CC1 (centres undefined),,inactive: -9.96%
COc1cc(C=c2c3ccccc3n3c2cc(-c2ccccc2)[n+]3C)cc(OC)c1OC,"inconclusive: 29.1 µM [falling, single point]",
CCCCN1C(C(=O)c2ccccc2)=C(OC(C)=O)c2ccccc2S1(=O)=O,"inconclusive: 20.6 µM [falling, single point]",

# A stretch from the list above, for reference:
Compound,Potency,"activity change, negative = cytotoxicity"
Cc1cccc(OCC(=O)NNC(=O)c2cc3ccccc3oc2=O)c1,,inactive: -7.43%
Cc1ccc2nc(NC(=O)CN(C)S(=O)(=O)c3cccc4nsnc34)sc2c1,"inconclusive: 29.1 µM [falling, single point]",
CCOC(=O)C1=CCC2c3c(c4ccccc4n3C)C(=O)C1N2C(=O)OC(C)(C)C (centres undefined),"inconclusive: 18.4 µM [falling, single point]",
O=C(CCCN1C(=O)/C(=C/c2cccc(Br)c2)SC1=S)NCCCN1CCOCC1,"inconclusive: 20.6 µM [falling, partial curve]",
Cc1cc(Cl)ccc1NC(=S)NCCC(c1ccccc1)c1ccccc1,"inconclusive: 11.2 µM [falling, single point]",

# Carrying on.

Compound,Potency,"activity change, negative = cytotoxicity"
COCCNCCCOc1ccc(C)cc1Br,"inconclusive: 29.1 µM [activator, partial curve, poor fit]",
CCOC(=O)CSc1ncnc2c(C(=O)OCC)c3n(c12)CCC3,"inconclusive: 6.51 µM [activator, partial curve, poor fit]",
CC(C)(C)OC(=O)NC1CNNC1=O (centres undefined),,inactive: -1.84%
CSc1nc(Oc2ccc(=O)n(C)n2)nc(N(C)C)n1,,inactive: 0.655%
CCN1CCN(C(=O)CCc2nc3ccccc3c(=O)[nH]2)CC1,"inconclusive: 25.9 µM [activator, partial curve, poor fit]",
Cc1ccc(-c2cc(-c3ccc(F)cc3)c(C#N)c(N)n2)o1,,inactive: -0.507%
Cc1cc(Oc2ccc(-c3ccccc3)cc2)nc(N2CCOCC2)n1,"inconclusive: 16.4 µM [activator, partial curve, poor fit]",
O=c1cc(-c2ccc3c(c2)OCO3)oc2ccccc12,,inactive: 3.41%
O=C(/C=N/O)NCCN1CCCCC1,"inconclusive: 8.2 µM [falling, partial curve]",
CC(=O)C1CCC2C3CCC4=CC(=O)CCC4(C)C3(Br)C(=O)CC12C (centres undefined),,inactive: -4.49%
COc1cccc(C2C3=C(N=C4SCC(=O)N42)c2ccccc2CC3)c1OC (centres undefined),"inconclusive: 10.3 µM [falling, partial curve, poor fit]",
CCCCN(C)CCNC(=S)Nc1ccc2nc(N3CCN(CC)CC3)cc(C)c2c1,"inconclusive: 10.3 µM [falling, partial curve, poor fit]",
O=C(NC1CCN(Cc2ccccc2)CC1)c1ccc(Cn2c(=S)[nH]c3ccc(N4CCOCC4)cc3c2=O)cc1,"inconclusive: 32.6 µM [falling, partial curve, poor fit]",
O=C(CN1C(=O)NC2(CCc3ccccc32)C1=O)Nc1ccc(Br)cc1F (centres undefined),"inconclusive: 18.4 µM [falling, single point]",
CC1=C(c2ccc(C)c(C)c2)S(=O)(=O)N(Cc2ccc(C(=O)NC(C)c3ccccc3)cc2)C1=O (centres undefined),,inactive: 0.712%
COc1cccc(-c2noc(CCC(=O)NC3CCCCC3)n2)c1,"inconclusive: 0.58 µM [activator, partial curve]",
CC(C)(C)OC(=O)NCCCCCc1cn([C@@H](CO)C(=O)NCCCCCCCCCCC(=O)N2CCN(C(=O)OC(C)(C)C)CC2)nn1,"inconclusive: 16.4 µM [falling, single point]",
Nc1c(C(=O)NC2CC2)c2nc3ccccc3nc2n1-c1ccc2c(c1)OCO2,,inactive: -10.7%
CCOC(=O)C(C(=O)OCC)C(Nc1ccc(Br)cc1)c1ccccc1 (centres undefined),"inconclusive: 16.4 µM [falling, single point]",
O=C(NCc1cccnc1)/C(=C\c1ccc(-c2cccc(Cl)c2)o1)S(=O)(=O)c1ccccc1,active: 20.6 µM,
COc1ccc(NC(=O)c2c(NCc3sccc3C)sc3c2CCCCC3)c(OC)c1,,inactive: -5.78%
CCOC(=O)c1c(NC(=O)C2COc3ccccc3O2)sc2c1CC(C)(C)NC2(C)C (centres undefined),"inconclusive: 25.9 µM [falling, partial curve, poor fit]",

Compound,Potency,"activity change, negative = cytotoxicity"
O=C(Cc1cc(=O)oc2cc(O)ccc12)NC(Cc1ccc(Cl)cc1)C(=O)O (centres undefined),"inconclusive: 23.1 µM [activator, partial curve]",
Oc1c(Cl)cc(Cl)c(Cl)c1Cc1c(O)c(Cl)cc(Cl)c1Cl,"inconclusive: 16.4 µM [falling, single point]",
O=C(c1ccc2c(=O)n(Cc3ccco3)c(=S)[nH]c2c1)N1CCN(Cc2ccc3c(c2)OCO3)CC1,"inconclusive: 9.2 µM [falling, partial curve, poor fit]",
Cc1cc(Br)ccc1NC(=O)c1ccc(NS(=O)(=O)c2c(C)noc2C)cc1,,inactive: 10.5%
Cc1cccc(N(C)S(=O)(=O)c2nnc(NC(=O)c3ccco3)s2)c1,,inactive: 1.85%
CCCC1=Nc2cc(C(=O)NCCc3ccccc3)ccc2Sc2ccc(C)cc21,,inactive: -10.8%
O=C(N/N=C/c1cccn1-c1ccc([N+](=O)[O-])cc1)c1cccnc1,"inconclusive: 16.4 µM [falling, single point]",
Cn1c(/C=C/c2ccc([N+](=O)[O-])o2)nc2ccccc2c1=O,"inconclusive: 16.4 µM [falling, single point]",
O=c1c2ccccc2c(/C=N/n2cnnc2)c(O)n1-c1ccccc1,"inconclusive: 20.6 µM [activator, single point]",
CCOc1ccc(NC(=O)/C=C\C(=O)N(c2ccc(C(C)C)cc2)C(C(=O)NCc2ccco2)c2ccc(F)cc2)cc1 (centres undefined),"inconclusive: 29.1 µM [falling, single point]",
CC(Oc1cccc(Br)c1)C(=O)NNC(=O)c1ccccn1 (centres undefined),"inconclusive: 18.4 µM [falling, single point]",
COc1ccccc1-c1c(C)nn2c(N3CCCCCC3)cc(C)nc12,"inconclusive: 18.4 µM [falling, single point]",
COc1ccccc1NC(=O)c1ccccc1NS(=O)(=O)c1cccs1,,inactive: -6.02%
CC(C)Oc1ccc(CNC(=O)CC(c2ccccc2)c2cc(Cl)ccc2O)cc1 (centres undefined),"inconclusive: 29.1 µM [falling, single point]",
CCCn1c(SC(C)C(=O)NCC2CCCO2)nc2sc(CC)cc2c1=O (centres undefined),"inconclusive: 10.3 µM [falling, partial curve, poor fit]",
Cc1c(-c2nsc(NC(=O)c3cccc(Cl)c3)n2)nnn1-c1ccccc1C(F)(F)F,"inconclusive: 20.6 µM [falling, partial curve, poor fit]",
Cc1ccc(/C=C/C(=O)N2CCN(S(=O)(=O)c3ccc(C)c(C)c3)CC2)o1,,inactive: 15.3%
COc1cc(C(=O)N2CCc3c([nH]c4ccccc34)C2c2ccc(C)cc2)cc(OC)c1OC (centres undefined),"inconclusive: 18.4 µM [falling, partial curve, poor fit]",
CCOC(=O)N/N=C\c1ccc([N+](=O)[O-])s1,"inconclusive: 18.4 µM [falling, single point]",
Cc1cc(=O)oc2c3c4c(cc12)OCCN4CCC3,"inconclusive: 20.6 µM [activator, partial curve]",
